A short description of the experiment: qHTS Assay for Lipid Storage Modulators in Drosophila S3 Cells.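 As to cell number change: cells counted by Cell Tracker Red CMTPX staining in the red channel.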 The note with it: BODIPY lipid droplet fluorescence, 18-24 h; for cell number change: measured here: cell count max response, cells fed with added oleic acid. A digest of the protocol: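 Laser-scanning cytometry quantifies lipid droplet accumulation (500–530 nm total intensity; droplet/cell object ratio) in oleic acid-fed (400 uM added) Drosophila S3 cells treated with a concentration series. 20 uM Triacsin C defined 100% inhibition.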

The mark [1] stands for this setting: measured here: cell number channel AC50, cells fed with added oleic acid.
The mark [2] stands for this setting: measured here: lipid fluorescence (Fed channel) AC50, cells fed with added oleic acid.

Structures are written as SMILES. The list shows a part of the results. Shown are side measurements of this screen, not its main read-out; they come without a call. Most of these compounds were active or inconclusive in the main read-out, so they are no random draw. Words in brackets tell the shape of the fitted curve; partial curves, single points and poor fits give uncertain potencies.

What is called AC50 is the midpoint of the concentration-response curve, whichever way the signal moves. A lower AC50 goes with activity at low concentration. With `N#Cc1cnc(Nc2ccc(F)cc2)nc1N`, the cell number change is -22.6%. Besides, the AC50 under setting [1] is 0.164 µM [falling, full curve, poor fit]. For the same compound, under setting [2], the AC50 was 0.291 µM [falling, full curve, poor fit].
`O=C(Cc1cccs1)Nc1cccc(C(=O)Nc2ccc(C(=O)O)cc2)c1`: the cell number change was determined as 17%. Besides, under setting [2], the concentration at half-maximal activity (AC50) is 0.259 µM [rising, partial curve, poor fit].
On to `Cc1ccc(C)c(NC(=O)c2cc(-c3ccccc3O)n[nH]2)c1`, for which the cell number change was 80.2%.
Turning to `CC1(C)O[C@@H]2CC3C4C[C@H](F)C5=CC(=O)C=CC5(C)C4C(O)CC3(C)[C@]2(C(=O)CO)O1` (stereo not given in full), the cell number change came out at 42%. Moreover, the concentration at half-maximal activity (AC50) under setting [1] is 25.9 µM [rising, partial curve]. The AC50 under setting [2] is 23.1 µM [rising, partial curve, poor fit].
`Cc1ccc2[nH]c(O)c(N=NC(=O)c3ccc(NS(=O)(=O)c4cccs4)cc3)c2c1`: the cell number change is -15.2%. Moreover, the half-maximal activity concentration (AC50) under setting [2] was 25.9 µM [falling, partial curve].
For `CC(C(=O)NCc1cccs1)N1CCN(S(=O)(=O)c2ccc3c(c2)OCCCO3)CC1` (stereo not given), the concentration at half-maximal activity (AC50) is 6.51 µM [falling, single point] under setting [1] and 5.17 µM [falling, full curve, poor fit] under setting [2].
Consider `O=c1oc2ccccc2n1CCn1c2ccccc2c2nc3ccccc3nc21`, for which the half-maximal activity concentration (AC50) is 0.411 µM [rising, full curve] under setting [1] and 0.259 µM [rising, partial curve, poor fit] under setting [2].
In the case of `CC(C)(C)OC(=O)NNC(=S)NCc1ccc(Cl)cc1`, the cell number change amounted to 3.22%. For the same compound, under setting [2], the AC50 is 9.2 µM [rising, partial curve, poor fit].
`Cc1ccc(SCc2cc(=O)[nH]c(N3CCOCC3)n2)cc1`: the cell number change is 3.07%. In addition, the AC50 under setting [1] was 0.731 µM [falling, full curve]. Besides, the concentration at half-maximal activity (AC50) under setting [2] was 4.61 µM [falling, single point].
As to `O=C(Nc1ncccc1Cl)C1COc2ccccc2O1` (stereo not given), the cell number change came to 20.4%.
For `COc1cccc(NC(=O)C2C3C=CC4(O3)C2C(=O)N(C2CC2)C4C(=O)NC2CCCCC2C)c1` (stereo not given), the cell number change is 20.9%. Besides, the AC50 under setting [2] was 29.1 µM [falling, single point].
On to `Cc1nnc(N2C(=O)C(O)=C(C(=O)c3ccco3)C2c2ccc(F)cc2)s1` (stereo not given), for which the cell number change was -29.5%. The AC50 under setting [2] is 2.59 µM [falling, full curve].
In the case of `O=C(Cc1ccccc1F)Nc1ccc(SC(F)F)cc1`, the cell number change is -2.25%.
As for `Cc1cccc(N2CCN(C(=O)Cc3cn(C)c4ccccc34)CC2)c1C`, the AC50 under setting [1] is 0.82 µM [rising, partial curve, poor fit].
Turning to `COc1ccc2[nH]c3nc(SCC(=O)NC4CC4)nnc3c2c1`, the cell number change was determined as 23.1%. Under setting [2], the concentration at half-maximal activity (AC50) was 0.58 µM [falling, single point].
Turning to `O=C(O)c1ccc2cccc(Cl)c2c1O`, the cell number change was 4.83%. For the same compound, under setting [2], the AC50 was 0.00461 µM [falling, full curve, poor fit].
With `c1nnc(NC2=NCCC2)s1`, the cell number change is -71.7%. Moreover, under setting [1], the AC50 was 14.6 µM [falling, single point].
In the case of `CCC(=O)N1CCc2cc(S(=O)(=O)CCC(=O)N3CCN(c4ccc(F)cc4)CC3)ccc21`, the cell number change was 14.3%. Further, under setting [2], the AC50 is 0.291 µM [rising, full curve].
In the case of `O=C(c1ccc(=O)oc1)N1CCCc2ccccc21`, the cell number change was 12.8%.
As for `COC(=O)C1=C(C)N(CCCC(=O)O)C(=O)NC1c1ccc(C(F)(F)F)cc1` (stereo not given), the cell number change stood at 11.4%.
On to `Cc1ccc(N(CC(=O)N/N=C/c2cccs2)S(C)(=O)=O)cc1Cl`, for which the cell number change came to 50.4%. Further, the AC50 under setting [1] is 29.1 µM [rising, single point].
On to `CCOC(=O)c1c(NC(=O)c2nn(CC)cc2Br)sc2c1CCCCC2`, for which, under setting [1], the concentration at half-maximal activity (AC50) is 1.64 µM [rising, partial curve].
In the case of `O=C(NCCCN1CCOCC1)c1ccc2c(c1)N(Cc1ccccc1)C(=O)c1ccccc1S2`, under setting [1], the AC50 was 3.66 µM [falling, partial curve, poor fit].
As for `COc1ccccc1CNC(=O)COC(=O)Cc1cccs1`, the cell number change turned out to be 35.9%.
Take `COc1ccc(CNC(=O)COC(=O)CN2C(=O)C(C)Oc3ccc(C)cc32)cc1` (stereo not given): the cell number change came out at 7.08%. Moreover, the half-maximal activity concentration (AC50) under setting [2] was 2.06 µM [rising, partial curve].
`CCCN1Cc2cccc(C(=O)Nc3ccc4c(c3)OCO4)c2C1=O`: the cell number change is -12.5%. Moreover, under setting [2], the AC50 is 6.51 µM [rising, partial curve, poor fit].
Consider `COc1cc(C(=O)Nc2cnc(NC(=O)C(C)C)cc2C)cc(OC)c1OC`, for which the cell number change was 14%. Further, under setting [2], the AC50 is 6.51 µM [falling, single point].
On to `COc1ccc(-c2ncc3ccccn23)cc1OC`, for which the cell number change is -16.5%. The AC50 under setting [2] was 2.91 µM [falling, full curve, poor fit].
With `COc1ccccc1NC(=O)Nc1nc(CC(=O)Nc2ccc(N(C)C)cc2)cs1`, the AC50 under setting [2] was 1.84 µM [rising, partial curve].
As for `O=C(CN1C(=O)NC2(CCCCC2)C1=O)N1CCN(S(=O)(=O)c2ccccc2)CC1`, the cell number change is -3.92%. Further, under setting [2], the concentration at half-maximal activity (AC50) is 20.6 µM [rising, partial curve, poor fit].
Take `Cc1cc(Oc2nc3ccccn3c(=O)c2/C=C(\C#N)C(=O)NC2CCS(=O)(=O)C2)ccc1Cl` (stereo not given): the cell number change was -8.73%. For the same compound, under setting [2], the half-maximal activity concentration (AC50) was 29.1 µM [falling, single point].
As to `CC1=C(C(=O)Nc2ccccc2)C(c2ccco2)C(C#N)=C(SCc2ccccc2)N1` (stereo not given), the cell number change is -22.6%. For the same compound, the half-maximal activity concentration (AC50) under setting [2] is 2.06 µM [rising, partial curve, poor fit].
Consider `Cc1ccc(C)n1-c1ccncc1`, for which the cell number change worked out at 6.79%.
In the case of `CC(NC(=O)NC1CCCCC1)C(c1cccs1)N1CCN(c2ccccc2)CC1` (stereo not given), the cell number change came out at 38.2%. The AC50 under setting [1] was 29.1 µM [rising, single point]. Further, the AC50 under setting [2] is 29.1 µM [rising, single point].
Take `O=C(Nc1cccnc1)c1ccc(COc2ccccc2Br)cc1`: the cell number change is 16.7%. Besides, the AC50 under setting [2] is 29.1 µM [rising, single point].
Take `COc1ccc(-c2nc(-c3ccc(NC(=O)c4ccc(Br)o4)cc3)no2)cc1OC`: the cell number change is -66.7%. Besides, under setting [1], the AC50 is 13 µM [falling, partial curve, poor fit]. Further, the AC50 under setting [2] was 18.4 µM [falling, partial curve, poor fit].
Regarding `Cc1ccc(C(=O)Sc2cccccc2=O)cc1`, the cell number change is -45.9%. Moreover, under setting [1], the AC50 was 10.3 µM [falling, partial curve]. Moreover, the AC50 under setting [2] was 14.6 µM [falling, partial curve].
For the compound `Cc1ccc(-n2nc(C(=O)O)c(C)c(C#N)c2=O)cc1Cl`, the cell number change was -4.42%.
